How the values were obtained:
[1] = in vivo; settings: male, Sprague-Dawley, rat, po

SMILES: CCC(CC(C)C)C(=O)Nc1ccc(S(N)(=O)=O)cc1 (centres unmarked) [Compound 23, 2-Ethyl-4-methyl-N-(4-sulfamoyl-phenyl)-pentanamide]
- melting point: 199 to 200 °C
- TD50 [1]: > 500 mg/kg

Reference: US20120264827A1, “SULFANYLAMIDE DERIVATIVES, USES THEREOF AND COMPOSITIONS COMPRISING THEM” (YISSUM RESEARCH DEVELOPMENT COMPANY OF THE HEBREW …, priority 2009, published 2012)
